Results from the supplement of paper PMC11348887.
Where a name gives a salt, the structure may show the parent alone. The list shows a part of the results. Most values lie at the level of the controls, where differences are scatter.

Key:
Conditions in all cases: 5 µM; treatment: days 7-14 after plating, readout day 21
[1] = system: hPSC-derived cortical neurons (WA09); test: nucleus area z-score vs screen plate; higher = larger nuclei (more mature)
[2] = system: hPSC-derived cortical neurons (WA09); test: total neurite length per nucleus (MAP2) z-score; higher = more neurite growth
[3] = system: hPSC-derived cortical neurons (WA09); test: nucleus roundness z-score vs screen plate; higher = rounder nuclei (more mature)
[4] = system: hPSC-derived cortical neurons (WA09); test: KCl-induced FOS+/EGR-1+ double-positive nuclei fraction z-score (KCl minus unstimulated); higher = stronger activity-induced IEG response

Row | SMILES | nucleus area z-score [1] | total neurite length per nucleus (z-score) [2] | nucleus roundness z-score [3] | KCl-induced FOS+/EGR-1+ double-positive nuclei fraction z-score [4]
1 | COc1ccc([C@@H]2CC(=O)c3c(O)cc(O[C@@H]4O[C@H](CO[C@@H]5O[C@@H](C)[C@H](O)[C@@H](O)[C@H]5O)[C@@H](O)[C@H](O)[C@H]4O)cc3O2)cc1O [Hesperidin] | 0.148 | 0.439 | 0.489 | -0.424
2 | Cc1ccc(-c2ncc(Cl)cc2-c2ccc(S(C)(=O)=O)cc2)cn1 [Etoricoxib] | -0.195 | -0.373 | 0.117 | 1.03
3 | COc1ccc2ccc(=O)oc2c1CC=C(C)C [Osthole] | 0.0248 | 1.08 | 0.526 | -1.08
4 | Nc1nc(=S)c2ncn([C@H]3C[C@H](O)[C@@H](CO)O3)c2[nH]1 | -0.0128 | -0.376 | -0.351 | 0.513
5 | CCCCCCCc1ccc(CCc2cccc(O)c2C(=O)O)cc1 | 0.535 | 0.797 | 0.852 | 0.148
6 | O[C@H]1[C@H](O)[C@@H](O)[C@H](O)[C@@H](O)[C@H]1O [i-Inositol] | -0.207 | 0.118 | 1.27 | 2.07
7 | CC[C@H]1OC(=O)[C@H](C)[C@@H](O[C@H]2C[C@@](C)(OC)[C@@H](O)[C@H](C)O2)[C@H](C)[C@@H](O[C@@H]2O[C@H](C)C[C@H](N(C)C)[C@H]2O)[C@](C)(O)C[C@@H](C)/C(=N\OCOCCOC)[C@H](C)[C@@H](O)[C@]1(C)O [Roxithromycin] | 0.423 | -0.0269 | -0.439 | -0.218
8 | CC(=O)SCC(Cc1ccccc1)C(=O)NCC(=O)OCc1ccccc1 (stereo not drawn) [Racecadotril] | -0.644 | 1.26 | 1.15 | 1.73
9 | CCc1ccc(CCOc2ccc(CC3SC(=O)NC3=O)cc2)nc1 (stereo not drawn) [Pioglitazone HCl] | 1.11 | -1.03 | -0.0291 | 0.0569
10 | Clc1ccc(C(Cn2ccnc2)OCc2c(Cl)cccc2Cl)c(Cl)c1 (stereo not drawn) [Isoconazole nitrate] | -0.963 | 0.247 | 0.942 | 0.146
11 | CCOC(=O)[C@H](CCc1ccccc1)N[C@@H](C)C(=O)N1C(=O)N(C)C[C@H]1C(=O)O [Imidapril HCl] | -0.451 | 2.13 | 0.646 | 0.442
12 | Cc1c(Cl)cccc1Nc1ccccc1C(=O)O [Tolfenamic Acid] | -1.1 | 0.567 | -0.214 | -0.102
13 | O=c1cc(CN2CCOCC2)occ1OCCCCCSc1ccnc2cc(C(F)(F)F)ccc12 | 0.0598 | -0.984 | -0.28 | -0.197
14 | NC12CC3CC(CC(C3)C1)C2 [Amantadine HCl] | 0.729 | -0.626 | -0.621 | -0.262
15 | CCN(CC)CCOCCOC(=O)C(CC)(CC)c1ccccc1 [Oxeladin Citrate] | -1.75 | -1.35 | -0.0978 | -0.498
16 | CC(=O)S[C@@H]1CC2=CC(=O)CC[C@]2(C)[C@H]2CC[C@@]3(C)[C@@H](CC[C@@]34CCC(=O)O4)[C@H]12 [Spironolactone] | 0.221 | 0.185 | 0.665 | 1.78
17 | Cc1ccc(NC(=O)c2cccc(N(C)C)c2)cc1NC(=O)c1ccc(O)cc1 | 1.53 | 2.55 | 2.53 | 1.64
18 | C[C@@H](O)[C@@H]1NC(=O)[C@H](CCCCN)NC(=O)[C@@H](Cc2c[nH]c3ccccc23)NC(=O)[C@H](Cc2ccccc2)NC(=O)[C@@H](NC(=O)[C@H](N)Cc2ccccc2)CSSC[C@@H](C(=O)N[C@H](CO)[C@@H](C)O)NC1=O [Octreotide Acetate] | -2.74 | 0.00871 | -0.643 | -0.00993
19 | COc1cc(Nc2ncc(F)c(Nc3ccc4c(n3)NC(=O)C(C)(C)O4)n2)cc(OC)c1OC [R406 (free base)] | -0.506 | 0.811 | 0.326 | 1.35
20 | O=C1NCCc2[nH]c(-c3ccncc3)cc21 | -2.43 | -0.206 | -0.453 | -0.206
21 | COc1ccc(C(=O)c2ccccc2)c(O)c1 [Oxybenzone] | 0.162 | 0.257 | -0.331 | 1.59
22 | O=C(c1ccc(F)c(F)c1Nc1ccc(I)cc1F)N1CC(O)([C@@H]2CCCCN2)C1 [Cobimetinib (GDC-0973_ RG7420)] | -0.364 | -1.08 | -1.8 | -0.593
23 | O=C(Nc1ccccc1C(=O)NC1CCCCNC1=O)c1cc2ccccc2s1 (stereo not drawn) | -0.21 | 0.0558 | 0.419 | 0.346
24 | CCCCCCCCCCCCCCCC(=O)OC[C@H](O)[C@H]1OC(=O)C(O)=C1O [L-Ascorbyl 6-palmitate] | -0.117 | -0.326 | -0.808 | -0.888
25 | CCCc1cc(-c2nc(-c3ccc(C)cc3)cs2)ccn1 [Fatostatin HBr] | 0.811 | -0.417 | -1.08 | -0.177
26 | Cc1cc(C)c(/C=C2\C(=O)Nc3ccccc32)[nH]1 [Semaxanib (SU5416)] | 0.9 | -0.845 | -0.745 | -0.286
27 | Cc1ccc(C(=O)Cn2c3c(sc2=N)CCCC3)cc1 [Pifithrin-_ (PFT_)] | 0.731 | -0.703 | -0.11 | 0.23

Single records, as listed above. Order of values: nucleus area z-score [1]	total neurite length per nucleus (z-score) [2]	nucleus roundness z-score [3]	KCl-induced FOS+/EGR-1+ double-positive nuclei fraction z-score [4]
C[C@@H](O)[C@@H]1NC(=O)[C@H](CCCCN)NC(=O)[C@@H](Cc2c[nH]c3ccccc23)NC(=O)[C@H](Cc2ccccc2)NC(=O)[C@@H](NC(=O)[C@H](N)Cc2ccccc2)CSSC[C@@H](C(=O)N[C@H](CO)[C@@H](C)O)NC1=O [Octreotide Acetate] in the list: -2.74	0.00871	-0.643	-0.00993
COc1ccc([C@@H]2CC(=O)c3c(O)cc(O[C@@H]4O[C@H](CO[C@@H]5O[C@@H](C)[C@H](O)[C@@H](O)[C@H]5O)[C@@H](O)[C@H](O)[C@H]4O)cc3O2)cc1O [Hesperidin] in the list: 0.148	0.439	0.489	-0.424
